Experimental data: publication PMC8329197, “Compounds targeting OSBPL7 increase ABCA1-dependent cholesterol efflux preserving kidney function in two models of kidney disease” (Nature Communications, 2021)
These are yes or no findings as the source states them, for the method shown. In cells and extracts the contact can be indirect. Where a sequence is shown, tags or fusion partners need not be part of it.

Sequences of proteins named here, by UniProt entry; tags and fusion partners are left off.
UniProt O95477: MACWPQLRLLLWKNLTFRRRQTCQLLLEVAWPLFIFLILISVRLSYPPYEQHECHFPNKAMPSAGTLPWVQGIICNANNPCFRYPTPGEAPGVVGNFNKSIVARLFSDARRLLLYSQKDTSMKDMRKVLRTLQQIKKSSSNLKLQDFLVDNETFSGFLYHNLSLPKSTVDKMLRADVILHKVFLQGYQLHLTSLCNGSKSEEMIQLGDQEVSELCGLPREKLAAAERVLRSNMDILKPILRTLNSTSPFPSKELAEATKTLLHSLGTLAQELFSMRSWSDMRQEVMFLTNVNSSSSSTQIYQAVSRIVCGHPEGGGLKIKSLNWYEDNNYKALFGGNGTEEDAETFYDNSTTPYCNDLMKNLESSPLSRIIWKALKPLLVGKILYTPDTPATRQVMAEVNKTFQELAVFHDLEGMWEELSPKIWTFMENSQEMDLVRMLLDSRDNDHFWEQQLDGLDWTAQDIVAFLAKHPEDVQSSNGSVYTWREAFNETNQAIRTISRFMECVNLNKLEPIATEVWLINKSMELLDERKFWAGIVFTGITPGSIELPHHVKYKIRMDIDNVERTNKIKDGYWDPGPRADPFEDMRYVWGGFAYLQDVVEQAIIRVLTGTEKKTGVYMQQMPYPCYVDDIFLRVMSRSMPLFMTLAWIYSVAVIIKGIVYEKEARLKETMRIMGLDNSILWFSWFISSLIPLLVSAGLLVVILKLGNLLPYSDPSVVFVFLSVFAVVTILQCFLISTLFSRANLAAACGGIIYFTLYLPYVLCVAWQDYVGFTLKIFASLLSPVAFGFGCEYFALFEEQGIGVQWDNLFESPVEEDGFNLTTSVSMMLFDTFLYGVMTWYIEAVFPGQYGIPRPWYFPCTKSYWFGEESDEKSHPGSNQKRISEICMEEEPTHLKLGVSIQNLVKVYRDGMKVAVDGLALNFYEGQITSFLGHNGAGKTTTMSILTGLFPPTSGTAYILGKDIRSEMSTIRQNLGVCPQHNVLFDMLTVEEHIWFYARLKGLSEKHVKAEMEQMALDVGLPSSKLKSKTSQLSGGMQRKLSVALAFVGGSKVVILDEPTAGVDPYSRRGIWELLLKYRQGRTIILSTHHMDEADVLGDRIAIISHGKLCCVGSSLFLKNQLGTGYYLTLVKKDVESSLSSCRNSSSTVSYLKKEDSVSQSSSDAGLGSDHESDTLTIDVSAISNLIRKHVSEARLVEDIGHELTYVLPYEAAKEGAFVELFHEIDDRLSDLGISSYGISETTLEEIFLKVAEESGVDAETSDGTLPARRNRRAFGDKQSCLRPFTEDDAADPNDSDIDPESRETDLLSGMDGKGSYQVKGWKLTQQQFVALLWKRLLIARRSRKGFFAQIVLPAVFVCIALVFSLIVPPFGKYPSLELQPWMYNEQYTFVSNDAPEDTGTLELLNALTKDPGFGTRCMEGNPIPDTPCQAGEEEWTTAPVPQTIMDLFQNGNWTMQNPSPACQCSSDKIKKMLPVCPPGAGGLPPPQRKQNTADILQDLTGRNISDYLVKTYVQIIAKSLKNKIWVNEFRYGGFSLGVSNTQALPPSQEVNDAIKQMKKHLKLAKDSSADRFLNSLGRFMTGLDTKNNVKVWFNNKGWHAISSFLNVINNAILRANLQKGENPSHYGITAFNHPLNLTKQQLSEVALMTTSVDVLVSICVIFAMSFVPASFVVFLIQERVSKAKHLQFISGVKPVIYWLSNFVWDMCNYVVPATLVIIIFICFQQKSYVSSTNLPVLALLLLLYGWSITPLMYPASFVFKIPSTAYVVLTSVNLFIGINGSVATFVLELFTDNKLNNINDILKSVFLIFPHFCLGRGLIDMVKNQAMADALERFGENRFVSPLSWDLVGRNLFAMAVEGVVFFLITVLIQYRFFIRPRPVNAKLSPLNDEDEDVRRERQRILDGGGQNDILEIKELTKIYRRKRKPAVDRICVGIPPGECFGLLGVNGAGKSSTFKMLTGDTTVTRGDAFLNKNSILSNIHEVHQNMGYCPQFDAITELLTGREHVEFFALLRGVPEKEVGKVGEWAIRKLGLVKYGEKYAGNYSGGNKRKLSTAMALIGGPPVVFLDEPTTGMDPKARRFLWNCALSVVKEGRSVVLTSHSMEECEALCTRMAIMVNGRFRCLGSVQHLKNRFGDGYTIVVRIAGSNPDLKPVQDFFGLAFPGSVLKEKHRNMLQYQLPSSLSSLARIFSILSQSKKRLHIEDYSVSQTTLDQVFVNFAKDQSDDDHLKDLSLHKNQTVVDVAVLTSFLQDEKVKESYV

Target: ABCA1-FLAG (ATP-binding cassette transporter ABCA1, FLAG-tagged) (UniProt O95477)
Assay: co-IP; HEK293 cells transiently co-transfected with ABCA1-Flag + OSBPL7-V5; lysed 48 h later in 1% Triton X-100, 50 mM Tris-Cl pH 7.0, 150 mM NaCl with protease inhibitors; anti-Flag M2 affinity gel overnight at 4 °C, 5 washes; western blot for ABCA1 and OSBPL7-V5

B1: OSBPL7-V5 (Oxysterol Binding Protein Like 7, V5-tagged) (protein, UniProt Q9BZF2 1-842)
chain: MDFQERDPPFLPESAQSSKPSSAQQASELWEVVEEPRVRLGTEGVMPERQEGHLLKKRKWPLKGWHKRYFVLEDGILHYATTRQDITKGKLHGSIDVRLSVMSINKKAQRIDLDTEDNIYHLKIKSQDLFQSWVAQLRAHRLAHRLDMPRGSLPSTAHRKVPGAQLPTAATASALPGLGPREKVSSWLRDSDGLDRCSHELSECQGKLQELHRLLQSLESLHRIPSAPVIPTHQASVTTERPKKGKRTSRMWCTQSFAKDDTIGRVGRLHGSVPNLSRYLESRDSSGTRGLPPTDYAHLQRSFWALAQKVHSSLSSVLAALTMERDQLRDMHQGSELSRMGVSEASTGQRRLHSLSTSSDTTADSFSSLNPEEQEALYMKGRELTPQLSQTSILSLADSHTEFFDACEVLLSASSSENEGSEEEESCTSEITTSLSEEMLDLRGAERCQKGGCVPGRPMGPPRRRCLPAASGPGADVSLWNILRNNIGKDLSKVSMPVQLNEPLNTLQRLCEELEYSSLLDQASRIADPCERMVYIAAFAVSAYSSTYHRAGCKPFNPVLGETYECERPDRGFRFISEQVSHHPPISACHAESENFAFWQDMKWKNKFWGKSLEIVPVGTVNVSLPRFGDHFEWNKVTSCIHNVLSGQRWIEHYGEVLIRNTQDSSCHCKITFCKAKYWSSNVHEVQGAVLSRSGRVLHRLFGKWHEGLYRGPTPGGQCIWKPNSMPPDHERNFGFTQFALELNELTAELKRSLPSTDTRLRPDQRYLEEGNIQAAEAQKRRIEQLQRDRRKVMEENNIVHQARFFRRQTDSSGKEWWVTNNTYWRLRAEPGYGNMDGAVLW
For B1, the binding was “no binding”.
